The whole screen tested about 410,000 compounds, of which about 310 (0.076%) were called active. The inconclusive results got no clear call from the source; some entries with a clear call stand among them for comparison. The call rests on the fitted dose curve; in most records, active means well fitted activation curve with a large enough effect; inconclusive means small, poorly fitted or top-dose-only effect, or another doubt; inactive means no such curve, though single readings can be large or run the other way. Where the call is inconclusive, the potency comes from a doubtful curve fit.
Each compound was assayed against Parathyroid hormone/parathyroid hormone-related peptide receptor (Homo sapiens) (UniProt Q03431) (assay: qHTS for PTHR1 Agonists: Primary Screen). Details: HEK293 GP2 PTHR1 cells, GloSensor cAMP luminescence, 1 h; activation: at 115 µM (top of the series) unless noted; series mostly up to 115 µM.
Procedure, shortened: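 HEK-293-derived GP2 cells expressing PTHR1 and a GloSensor cAMP reporter, 3,000/well, plated overnight, given luciferin plus IBMX (each 0.5 mM as added) for 1 h at 37 °C, then compound for 1 h at 37 °C. Luminescence was read after 15 min at room temperature.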
Further: nearly all actives have a fitted effect of over 55% in size.
Potency means the concentration at half of the fitted maximal effect.

By UniProt entry, the sequences of proteins in these tests, tags left out. Where a name states a change or a piece, a line headed by the entry shows the natural chain unless it says otherwise.
UniProt Q03431: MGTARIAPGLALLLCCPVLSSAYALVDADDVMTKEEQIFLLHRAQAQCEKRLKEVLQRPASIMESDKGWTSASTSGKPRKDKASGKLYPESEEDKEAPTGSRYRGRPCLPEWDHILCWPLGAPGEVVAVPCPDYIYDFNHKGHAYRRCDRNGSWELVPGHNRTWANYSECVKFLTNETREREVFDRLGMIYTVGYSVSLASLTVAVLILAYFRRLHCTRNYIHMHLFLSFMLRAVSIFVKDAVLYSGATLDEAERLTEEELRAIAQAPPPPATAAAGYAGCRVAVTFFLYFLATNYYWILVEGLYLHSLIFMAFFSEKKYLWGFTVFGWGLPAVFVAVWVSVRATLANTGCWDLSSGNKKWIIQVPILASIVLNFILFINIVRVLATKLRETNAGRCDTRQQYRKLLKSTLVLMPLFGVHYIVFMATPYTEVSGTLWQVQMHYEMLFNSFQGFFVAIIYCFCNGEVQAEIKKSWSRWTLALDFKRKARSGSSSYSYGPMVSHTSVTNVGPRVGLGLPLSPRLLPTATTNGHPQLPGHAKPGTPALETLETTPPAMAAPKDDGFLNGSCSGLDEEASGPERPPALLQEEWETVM

Structure (SMILES) | Potency | activation | outcome
Cc1cc(C)n(-c2nc3cc(Cl)ccc3nc2Nc2ccc(CC(=O)O)cc2)n1 | inconclusive: 158 µM [activator, single point] |  | 
CCCn1c(=O)c2[nH]c(-c3ccc(S(=O)(=O)O)cc3)nc2n(CCC)c1=O | inconclusive: 126 µM [activator, single point] |  | 
COc1ccccc1CNc1nc2nc(C)cc(=O)n2[nH]1 |  | inconclusive: 33.9% [activator] [at 57.5 µM] | 
CC(C)c1ccc2c(c1)C(c1cccs1)=NNC(c1ccncc1)=N2 | inconclusive: 126 µM [activator, single point] |  | 
CC(C)(C)c1ccc(CN(Cc2ccco2)c2cnc(S(C)(=O)=O)nc2C(=O)Nc2ccc(F)cc2)cc1 |  | inconclusive: 31.9% [activator] | 
CCCn1c2c(c(O)c(C(=O)Nc3nc4ccccc4s3)c1=O)CCCC2 | inconclusive: 50.1 µM [activator, partial curve, poor fit] |  | 
CC(C)[C@H](NC(=O)c1ccco1)C(=O)NC12CC3CC(CC(C3)C1)C2 | inconclusive: 35.5 µM [activator, partial curve] |  | 
COc1ccc(Cl)cc1NC(=O)Cn1nc(Cc2ccncc2)c2ccccc2c1=O |  |  | inactive
CNCCCCOc1ccc(C(C)(C)C)cc1Cl |  | inconclusive: 54.3% [activator] | 
CCCCCSc1nnc2c(n1)OC(C)N(C(C)=O)c1ccccc1-2 (centres undefined) |  | inactive: -3.86% | 
Cc1c(NC(=S)NC(=O)C(C)(C)C)c(=O)n(-c2ccccc2)n1C | inconclusive: 25.1 µM [activator, single point] |  | 
CCCCN(C(=O)CCNC(=O)NC12CC3CC(CC(C3)C1)C2)c1c(N)n(CCCC)c(=O)[nH]c1=O | inconclusive: 126 µM [activator, single point] |  | 
Cc1cccc(NC(=O)Cn2nc(C(F)(F)F)cc2C2CC2)c1 |  | inconclusive: -35.7% [activator] | 
C/C=C(/C)C(=O)O[C@@H]1c2c(ccc3ccc(=O)oc23)OC(C)(C)[C@@H]1OC(=O)/C(C)=C\C |  | inactive: -53.8% | 
Cc1ncc([N+](=O)[O-])n1S(=O)(=O)c1cc(Br)ccc1Br | inconclusive: 50.1 µM [activator, partial curve, poor fit] |  | 
CCOC(=O)c1nn(-c2ccc(C)cc2)cc1C(=O)c1ccccc1 |  | inactive: -42% | 
COC(=O)c1cc(=O)n(-c2ccc(F)cc2)c(=Nc2ccc(F)cc2)s1 |  | inactive: -55% | 
Nn1c(SCC(=O)Nc2nccs2)nnc1-c1cccnc1 |  | inconclusive: 30.7% [activator] | 
O=C(Nc1ccc(Cn2cccn2)cc1)c1ccc(COc2ccc(Br)cc2)cc1 |  | inactive: -8.3% | 
COc1ccccc1N1CCN(C(=S)NC(=O)c2ccc([N+](=O)[O-])cc2)CC1 |  | inactive: -0.154% | 
O=C(Nc1cnc(N2CCC(N3CCCCC3)CC2)c(C(=O)O)c1)c1ccc(Br)cc1 |  | inactive: -3.26% | 
O=C(CCc1nnc2n(Cc3ccccc3)c(=O)c3ccccc3n12)NCCN1CCOCC1 | inconclusive: 141 µM [activator, single point] |  | 
Cc1ccc(C(CNC(=O)Nc2ccccc2)N2CCN(C)CC2)cc1 (centres undefined) | inconclusive: 39.8 µM [activator, partial curve, poor fit] |  | 

Structure (SMILES) | Potency | activation | outcome
COc1ccc(CNC(=O)c2cc3c(=O)n4ccccc4nc3n(Cc3cccnc3)c2=N)cc1 | inconclusive: 39.8 µM [activator, single point] |  | 
Cc1cccc(OCC(=O)N(Cc2ccccc2)c2ccccn2)c1 | inconclusive: 126 µM [activator, single point] |  | 
CCCSc1nnc(NC(=O)Nc2ccc(C)cc2)s1 |  | inactive: -33.1% | 
Cc1cc(OCC(=O)NCC2CCC(C(=O)O)CC2)c2c(C)c(C)c(=O)oc2c1 (centres undefined) | inconclusive: 31.6 µM [activator, single point] |  | 
COc1cccc(OCc2nnc(SCC(=O)OCc3ccccc3)o2)c1 |  | inconclusive: 30.2% [activator] [at 57.5 µM] | 
COc1ccc(Cc2nnc(N/N=C(\C)c3ccccc3)[nH]c2=O)cc1OC |  | inconclusive: -61.8% [activator] | 
OCCOCCN1CCN(C(c2ccccc2)c2ccc(Cl)cc2)CC1 (centres undefined) |  | inactive: -2.06% | 
CN(C)CCN=Cc1c(O)n(-c2ccc(S(=O)(=O)N3CCOCC3)cc2)c(=O)c2ccccc12 | inconclusive: 7.94 µM [activator, partial curve, poor fit] |  | 
CCn1ccnc1CNC(=O)c1ccc2oc(C(C)C)nc2c1 |  | inconclusive: 69.7% [activator] | 
COc1cc(Br)c(C(C)NC(=O)c2cccc(Br)c2)cc1OC (centres undefined) | inconclusive: 39.8 µM [activator, single point] |  | 
Cc1ccc(C)c(-c2cc(C(=O)Nc3sc(C)c(C)c3C(N)=O)c3ccccc3n2)c1 |  | inactive: -22.1% [at 57.5 µM] | 
N#C/C(=C\c1cccc([N+](=O)[O-])c1)C(=O)NCC1CCCO1 (centres undefined) | inconclusive: 89.1 µM [activator, single point] |  | 
Cc1ccc(NC(=O)Cn2ncn3c(cc4ccccc43)c2=O)c(C)c1 | inconclusive: 50.1 µM [activator, partial curve, poor fit] |  | 
Cc1ccc(S(=O)(=O)N(C)C)cc1NC(=O)c1cc(-c2ccncc2)nc2ccccc12 | inconclusive: 22.4 µM [activator, partial curve, poor fit] |  | 
Cn1c(NCc2cccnc2)nc2cc(-c3ccc(C(=O)N4CCOCC4)cc3)sc2c1=O |  | inactive: -36% | 
Cn1c(=O)c2c(nc(CN3CCN(C(c4ccccc4)c4ccccc4)CC3)n2CC(N)=O)n(C)c1=O | inconclusive: 39.8 µM [activator, single point] |  | 
N#C/C(=C\c1cccn1S(=O)(=O)c1ccccc1)S(=O)(=O)c1ccc(F)cc1 |  |  | inactive
O=C(CCNS(=O)(=O)c1ccc2c(c1)CCN2C(=O)C1CC1)N1CCN(c2ccccc2F)CC1 |  | inactive: -13.6% | 
O=C(CCSCc1ccccc1Cl)N1CCN(c2cccc(Cl)c2)CC1 | inconclusive: 35.5 µM [activator, single point] |  | 
C/C(Cn1nc([N+](=O)[O-])cc1C)=N\NC(=O)c1cccc(Br)c1 | inconclusive: 25.1 µM [activator, single point] |  | 
O=C1C(Nc2ccccc2)=C(N2CCCCC2)C(=O)c2ccccc21 |  | inactive: -10.4% [at 57.5 µM] | 
Cc1cc(NC(=O)c2c([N+](=O)[O-])cnn2C)no1 | inconclusive: 35.5 µM [activator, single point] |  | 
Cc1cc([N+](=O)[O-])ccc1NC(=S)NC(=O)Cc1ccccc1 |  |  | inactive

Retrieved by structure from the list above, 2 records:
Structure (SMILES) | Potency | activation | outcome
OCCOCCN1CCN(C(c2ccccc2)c2ccc(Cl)cc2)CC1 (centres undefined) |  | inactive: -2.06% | 
CNCCCCOc1ccc(C(C)(C)C)cc1Cl |  | inconclusive: 54.3% [activator] | 

Next compounds follow.

Structure (SMILES) | Potency | activation | outcome
Cc1ccc(S(=O)(=O)N(C#N)c2nc(C)cc(C)n2)cc1 | inconclusive: 44.7 µM [activator, partial curve, poor fit] |  | 
CCc1ccccc1NC(=O)Cn1c(=O)nc(-c2ccccc2)c2ccccc21 | inconclusive: 5.62 µM [activator, full curve, poor fit] |  | 
COc1ccc(OC)c(NC(=O)C2(C)CCN2C(=O)C2(c3ccccc3)CCCC2)c1 (centres undefined) |  | inactive: -18% | 
CC(C)[C@H](NC(=O)NCc1cccs1)C(=O)O | inconclusive: 10 µM [activator, full curve, poor fit] |  | 
Cc1onc(-c2ccccc2)c1C(=O)Nc1nc(-c2ccccc2)cs1 |  | inconclusive: -43.4% [activator] [at 57.5 µM] | 
COc1cccc(CNC(=O)C(C)n2ccc3cc(S(=O)(=O)N4CCCCCC4)ccc32)c1 (centres undefined) | inactive |  | 
CC(C)(C)n1nnnc1C(c1ccccc1F)N1CCN(C2CCCC2)CC1 (centres undefined) | inconclusive: 7.08 µM [activator, full curve, poor fit] |  | 
O=C(CCc1nc(-c2ccccc2)no1)NCc1ccco1 | inconclusive: 50.1 µM [activator, partial curve, poor fit] |  | 
COC(=O)NNC(=O)COc1cc(C)c(Br)cc1C(C)C |  |  | inactive
CCN(CC)CCNC(=O)c1ccccn1 |  | inconclusive: 32.9% [activator] | 
COc1ccccc1-c1oc2ccccc2c1C#CC(C)(C)O |  | inactive: -24.8% | 
Cc1cccc(OCCN2C(=O)C(=O)c3cccc(C)c32)c1 | inconclusive: 158 µM [activator, single point] |  | 
S=c1nc(-c2ccccc2)[nH]c2ccc(Br)cc12 |  | inactive: -19.6% | 
CC(C)(C)OC(=O)NCCCC[C@H](NC(=O)c1nc[nH]c1C(=O)NC1CCN(C(=O)OC(C)(C)C)CC1)C(=O)OC(C)(C)C |  | inactive: -29.4% | 
Cc1ccc(NC(=O)NCc2c(-n3cccc3)sc3c2CCCC3)c(Cl)c1 |  | inconclusive: 27.6% [activator] | 
C=CCNC(=S)Nc1ccc2nc(C)oc2c1 | inconclusive: 44.7 µM [activator, partial curve, poor fit] |  | 
CCN(CCCNC(=O)CN1N=C(c2ccc(C)cc2)CCC1=O)c1ccccc1 |  |  | inactive
COc1cc(CNC(=O)c2ccc3oc(C(C)C)nc3c2)cc(OC)c1 |  | inconclusive: -10.2% [activator] | 
CC1(C(=O)Nc2ccc(Cl)c(C(F)(F)F)c2)Cc2c(-c3ccccc3)ccnc2O1 (centres undefined) | inconclusive: 141 µM [activator, partial curve, poor fit] |  | 
COc1cccc2cc(C(N)=O)oc12 | inconclusive: 28.2 µM [activator, partial curve, poor fit] |  | 
CS(=O)(=O)c1ccc2nc(NC(=O)c3ccc(N4C(=O)CCC4=O)cc3)sc2c1 |  | inconclusive: 46.7% [activator] | 
COCCn1c(=O)c2c(nc3n2CC(C)CN3Cc2ccccc2)n(C)c1=O (centres undefined) | inconclusive: 44.7 µM [activator, partial curve, poor fit] |  | 
CCC(=O)Nc1ccc2c(c1)OC[C@@H](C)N(C(=O)c1ccccn1)C[C@@H](C)[C@@H](OC)CN(C)C2=O |  | inactive: -10.5% | 

Part of the list above, tab-delimited.
Structure (SMILES)	Potency	activation	outcome
COc1ccc(OC)c(NC(=O)C2(C)CCN2C(=O)C2(c3ccccc3)CCCC2)c1 (centres undefined)		inactive: -18%	
CC(C)[C@H](NC(=O)NCc1cccs1)C(=O)O	inconclusive: 10 µM [activator, full curve, poor fit]		

Reference: PubChem BioAssay AID743266 (National Center for Advancing Translational Sciences (NCATS), 2014)
